Assay results taken from the supplement of paper PMC10849652.
This is one part of the list.

By UniProt entry, the sequences of proteins in these tests, tags left out. Where a name states a change or a piece, a line headed by the entry shows the natural chain unless it says otherwise.
UniProt Q15063: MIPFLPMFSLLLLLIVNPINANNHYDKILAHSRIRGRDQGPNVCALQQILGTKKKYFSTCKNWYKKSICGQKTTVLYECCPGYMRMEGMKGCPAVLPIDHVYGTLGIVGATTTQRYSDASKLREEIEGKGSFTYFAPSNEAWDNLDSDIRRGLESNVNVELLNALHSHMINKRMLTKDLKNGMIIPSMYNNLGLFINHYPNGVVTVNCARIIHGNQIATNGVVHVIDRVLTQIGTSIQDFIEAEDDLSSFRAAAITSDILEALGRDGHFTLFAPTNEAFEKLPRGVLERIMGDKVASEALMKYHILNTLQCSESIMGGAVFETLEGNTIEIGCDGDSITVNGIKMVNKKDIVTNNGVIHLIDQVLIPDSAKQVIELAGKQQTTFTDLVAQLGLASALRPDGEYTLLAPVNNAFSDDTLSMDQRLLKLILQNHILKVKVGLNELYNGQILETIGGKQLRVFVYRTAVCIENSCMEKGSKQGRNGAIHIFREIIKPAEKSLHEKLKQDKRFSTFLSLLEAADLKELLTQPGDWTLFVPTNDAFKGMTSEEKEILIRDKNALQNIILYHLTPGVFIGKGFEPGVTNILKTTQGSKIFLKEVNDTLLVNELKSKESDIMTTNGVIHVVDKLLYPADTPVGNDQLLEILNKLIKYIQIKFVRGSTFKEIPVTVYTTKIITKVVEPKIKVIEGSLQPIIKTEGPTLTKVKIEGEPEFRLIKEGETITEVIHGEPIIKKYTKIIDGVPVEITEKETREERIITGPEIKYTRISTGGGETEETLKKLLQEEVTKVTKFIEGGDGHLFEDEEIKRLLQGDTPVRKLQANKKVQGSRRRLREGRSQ
UniProt P35813: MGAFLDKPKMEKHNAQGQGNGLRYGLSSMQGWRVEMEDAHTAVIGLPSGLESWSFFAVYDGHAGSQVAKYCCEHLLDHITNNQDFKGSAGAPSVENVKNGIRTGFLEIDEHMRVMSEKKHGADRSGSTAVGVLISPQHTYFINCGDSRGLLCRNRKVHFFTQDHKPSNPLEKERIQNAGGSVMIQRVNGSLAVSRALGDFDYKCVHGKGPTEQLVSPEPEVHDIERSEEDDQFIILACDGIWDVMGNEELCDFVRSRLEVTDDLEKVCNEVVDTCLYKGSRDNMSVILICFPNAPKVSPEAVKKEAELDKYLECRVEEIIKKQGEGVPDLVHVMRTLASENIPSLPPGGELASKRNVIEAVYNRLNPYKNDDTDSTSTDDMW
UniProt P16435: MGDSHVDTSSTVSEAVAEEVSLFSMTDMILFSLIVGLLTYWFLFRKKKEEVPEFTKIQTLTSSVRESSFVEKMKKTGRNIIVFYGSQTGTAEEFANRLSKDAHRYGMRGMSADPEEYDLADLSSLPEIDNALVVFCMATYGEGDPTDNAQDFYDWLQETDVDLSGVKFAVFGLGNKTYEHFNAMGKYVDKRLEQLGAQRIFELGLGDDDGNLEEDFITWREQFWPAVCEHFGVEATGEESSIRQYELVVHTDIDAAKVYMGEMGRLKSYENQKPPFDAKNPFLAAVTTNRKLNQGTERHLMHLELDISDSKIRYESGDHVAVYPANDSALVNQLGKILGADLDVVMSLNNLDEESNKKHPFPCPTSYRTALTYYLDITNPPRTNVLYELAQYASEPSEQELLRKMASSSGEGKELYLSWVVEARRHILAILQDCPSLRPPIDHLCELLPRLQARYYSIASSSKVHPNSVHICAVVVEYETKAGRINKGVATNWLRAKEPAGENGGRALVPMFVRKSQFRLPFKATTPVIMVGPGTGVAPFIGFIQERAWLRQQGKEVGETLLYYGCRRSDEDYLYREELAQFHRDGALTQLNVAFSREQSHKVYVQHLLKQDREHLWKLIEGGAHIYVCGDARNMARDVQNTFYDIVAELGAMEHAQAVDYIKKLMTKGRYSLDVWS
UniProt P54278: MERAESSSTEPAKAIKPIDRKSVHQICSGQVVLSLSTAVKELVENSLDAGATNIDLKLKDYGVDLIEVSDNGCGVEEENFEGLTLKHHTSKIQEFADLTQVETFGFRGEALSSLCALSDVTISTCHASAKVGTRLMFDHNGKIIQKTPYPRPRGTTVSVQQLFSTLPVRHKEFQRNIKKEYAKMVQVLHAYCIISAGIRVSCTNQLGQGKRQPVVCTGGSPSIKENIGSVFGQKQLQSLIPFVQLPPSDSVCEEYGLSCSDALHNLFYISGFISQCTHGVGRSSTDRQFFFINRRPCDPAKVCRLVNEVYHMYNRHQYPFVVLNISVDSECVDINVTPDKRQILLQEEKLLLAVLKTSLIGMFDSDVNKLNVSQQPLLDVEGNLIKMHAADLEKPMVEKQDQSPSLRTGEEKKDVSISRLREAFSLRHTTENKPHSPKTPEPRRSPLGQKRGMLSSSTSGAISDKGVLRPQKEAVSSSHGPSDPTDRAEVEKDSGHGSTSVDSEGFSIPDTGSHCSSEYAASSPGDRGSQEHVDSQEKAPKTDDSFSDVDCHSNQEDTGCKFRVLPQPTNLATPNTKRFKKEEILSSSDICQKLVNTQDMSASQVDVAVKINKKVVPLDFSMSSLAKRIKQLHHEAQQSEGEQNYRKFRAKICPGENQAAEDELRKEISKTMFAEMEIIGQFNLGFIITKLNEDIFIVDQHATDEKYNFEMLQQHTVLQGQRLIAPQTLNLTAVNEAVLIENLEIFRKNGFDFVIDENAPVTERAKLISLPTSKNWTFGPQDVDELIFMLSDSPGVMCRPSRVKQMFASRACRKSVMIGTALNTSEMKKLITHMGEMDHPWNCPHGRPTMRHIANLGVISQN
UniProt P62937, whole entry, looked up: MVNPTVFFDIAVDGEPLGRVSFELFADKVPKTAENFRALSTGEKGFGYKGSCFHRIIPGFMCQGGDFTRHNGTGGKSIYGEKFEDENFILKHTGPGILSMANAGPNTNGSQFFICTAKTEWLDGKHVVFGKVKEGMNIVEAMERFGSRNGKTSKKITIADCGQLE
UniProt Q8TF01: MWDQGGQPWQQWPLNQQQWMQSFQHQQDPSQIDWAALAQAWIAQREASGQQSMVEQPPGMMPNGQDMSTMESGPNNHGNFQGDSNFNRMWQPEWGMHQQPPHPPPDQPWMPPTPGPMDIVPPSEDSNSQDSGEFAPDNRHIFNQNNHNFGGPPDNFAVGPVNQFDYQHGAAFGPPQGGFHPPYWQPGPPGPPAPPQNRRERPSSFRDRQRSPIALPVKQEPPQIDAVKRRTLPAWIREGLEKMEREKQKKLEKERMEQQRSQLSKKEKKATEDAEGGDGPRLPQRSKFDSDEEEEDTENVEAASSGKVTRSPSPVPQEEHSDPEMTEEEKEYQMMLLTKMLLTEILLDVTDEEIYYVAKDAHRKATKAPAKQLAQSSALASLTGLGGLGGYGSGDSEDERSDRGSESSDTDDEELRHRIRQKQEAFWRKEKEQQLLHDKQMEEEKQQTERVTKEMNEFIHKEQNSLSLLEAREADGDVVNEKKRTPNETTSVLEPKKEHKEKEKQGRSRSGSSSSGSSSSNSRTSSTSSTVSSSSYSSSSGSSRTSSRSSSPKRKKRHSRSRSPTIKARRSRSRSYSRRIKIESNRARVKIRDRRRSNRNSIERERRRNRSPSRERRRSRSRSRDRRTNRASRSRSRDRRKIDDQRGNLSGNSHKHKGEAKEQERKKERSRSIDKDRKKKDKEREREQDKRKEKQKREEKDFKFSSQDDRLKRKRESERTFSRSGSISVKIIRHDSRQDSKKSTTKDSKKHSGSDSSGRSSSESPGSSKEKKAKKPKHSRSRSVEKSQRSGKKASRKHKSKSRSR
UniProt P30405: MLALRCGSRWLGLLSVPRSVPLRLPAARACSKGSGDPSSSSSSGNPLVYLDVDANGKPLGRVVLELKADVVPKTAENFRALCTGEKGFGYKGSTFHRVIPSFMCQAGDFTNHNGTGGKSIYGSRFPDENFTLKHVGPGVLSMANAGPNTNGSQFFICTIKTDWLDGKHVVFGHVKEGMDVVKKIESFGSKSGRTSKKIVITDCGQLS
UniProt P54098: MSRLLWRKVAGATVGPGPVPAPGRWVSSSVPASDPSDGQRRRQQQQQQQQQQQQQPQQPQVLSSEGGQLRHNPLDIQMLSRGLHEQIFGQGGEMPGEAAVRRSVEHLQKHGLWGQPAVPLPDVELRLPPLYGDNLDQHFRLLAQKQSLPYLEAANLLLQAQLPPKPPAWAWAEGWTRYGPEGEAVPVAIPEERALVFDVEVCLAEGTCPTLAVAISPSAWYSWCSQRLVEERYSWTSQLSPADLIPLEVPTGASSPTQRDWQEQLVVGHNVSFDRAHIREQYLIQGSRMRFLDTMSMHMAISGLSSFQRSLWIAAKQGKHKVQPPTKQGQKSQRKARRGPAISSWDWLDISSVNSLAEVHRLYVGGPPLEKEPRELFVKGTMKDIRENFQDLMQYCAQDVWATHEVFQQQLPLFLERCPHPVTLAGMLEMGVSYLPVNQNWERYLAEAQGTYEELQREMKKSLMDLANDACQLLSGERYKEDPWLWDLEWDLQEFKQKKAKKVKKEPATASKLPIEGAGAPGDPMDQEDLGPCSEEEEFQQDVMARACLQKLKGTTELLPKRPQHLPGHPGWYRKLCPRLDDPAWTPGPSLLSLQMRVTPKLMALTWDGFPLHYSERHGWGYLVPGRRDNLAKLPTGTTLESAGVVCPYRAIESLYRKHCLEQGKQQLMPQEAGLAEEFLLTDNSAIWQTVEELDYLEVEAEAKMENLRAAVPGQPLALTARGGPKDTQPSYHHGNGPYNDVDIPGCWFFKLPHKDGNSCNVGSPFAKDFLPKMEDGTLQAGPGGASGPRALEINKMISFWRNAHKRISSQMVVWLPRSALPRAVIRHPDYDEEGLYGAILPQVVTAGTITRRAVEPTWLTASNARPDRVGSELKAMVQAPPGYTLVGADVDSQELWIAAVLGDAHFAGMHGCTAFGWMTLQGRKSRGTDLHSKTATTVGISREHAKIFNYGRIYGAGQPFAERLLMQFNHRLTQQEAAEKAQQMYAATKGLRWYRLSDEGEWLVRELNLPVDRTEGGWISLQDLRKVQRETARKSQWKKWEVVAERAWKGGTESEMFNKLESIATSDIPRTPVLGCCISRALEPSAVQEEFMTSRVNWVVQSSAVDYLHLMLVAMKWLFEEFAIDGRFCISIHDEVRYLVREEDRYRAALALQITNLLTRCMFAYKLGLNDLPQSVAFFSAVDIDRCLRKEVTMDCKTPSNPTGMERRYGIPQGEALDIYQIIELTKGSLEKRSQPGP
UniProt Q9H8W4: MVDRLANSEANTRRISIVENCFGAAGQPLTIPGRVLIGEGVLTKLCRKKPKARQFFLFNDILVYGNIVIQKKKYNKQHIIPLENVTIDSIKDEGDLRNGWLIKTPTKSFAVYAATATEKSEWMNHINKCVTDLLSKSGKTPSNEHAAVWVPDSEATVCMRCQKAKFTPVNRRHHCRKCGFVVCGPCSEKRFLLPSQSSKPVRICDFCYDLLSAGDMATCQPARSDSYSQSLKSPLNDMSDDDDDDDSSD
UniProt Q9NZ53: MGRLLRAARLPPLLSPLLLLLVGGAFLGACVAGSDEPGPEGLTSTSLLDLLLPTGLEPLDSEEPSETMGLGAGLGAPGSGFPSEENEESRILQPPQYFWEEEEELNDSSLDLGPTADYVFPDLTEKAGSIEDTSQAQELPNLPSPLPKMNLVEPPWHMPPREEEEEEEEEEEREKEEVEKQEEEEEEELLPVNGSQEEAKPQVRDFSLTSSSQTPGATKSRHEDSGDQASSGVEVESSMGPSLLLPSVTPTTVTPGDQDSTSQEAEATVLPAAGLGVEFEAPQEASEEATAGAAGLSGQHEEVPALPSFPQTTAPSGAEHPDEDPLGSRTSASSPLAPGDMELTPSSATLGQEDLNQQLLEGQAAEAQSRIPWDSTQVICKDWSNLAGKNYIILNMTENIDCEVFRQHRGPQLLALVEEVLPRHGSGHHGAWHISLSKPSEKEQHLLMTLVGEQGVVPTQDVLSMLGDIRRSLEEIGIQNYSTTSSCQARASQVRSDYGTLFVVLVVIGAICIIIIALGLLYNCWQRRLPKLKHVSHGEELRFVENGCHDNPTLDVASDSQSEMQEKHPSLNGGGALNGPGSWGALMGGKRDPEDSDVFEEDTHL

Columns and labels:
Assay in all cases: log2 fold change, soluble protein after heating vs DMSO (PISA); higher = thermal stabilisation; K562 cells, 10 uM, 30 min; active = over 0.2 and 3.5 SD of the protein, either way, in both replicates (recomputed)
[1] = compound: CN1CCN(CCOc2cc(OC3CCOCC3)c3c(Nc4c(Cl)ccc5c4OCO5)ncnc3c2)CC1 [saracatinib]
Method in brief: (§1)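 K562 cells at 2×10^6 cells/mL were treated for 30 min with 10 μM compound, and aliquots were heated for 3 min over 48°C-58°C before pooling. Extraction used PBS with 0.5% NP-40 at 4°C, and soluble protein was the supernatant after 21,000xg for 90 min, measured by TMTpro 16plex LC-MS/MS with channel sums equalised. Thermal stability values, relative to control samples and from duplicates, are log2 fold changes.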

[2] = compound: CN1CCN(c2nc(C3=C(c4c[nH]c5ccccc45)C(=O)NC3=O)c3ccccc3n2)CC1 [sotrastaurin]
Method in brief: as §1

[3] = compound: CN1CC[C@H](c2c(O)cc(O)c3c(=O)cc(-c4ccccc4Cl)oc23)[C@H](O)C1 [alvocidib]
Method in brief: as §1

[4] = compound: CN1CCc2c(c3ccccc3n2Cc2ccc(C(=O)NO)cc2)C1 [Tubastatin A]
Method in brief: as §1

[5] = compound: CNC(=O)C1=CC=CC=C1NC2=NC(=NC=C2Cl)NC3=C(C=C(C=C3)N4CCOCC4)OC
Method in brief: as §1

[6] = compound: CNC(=O)c1ccc(Nc2ncc(C(F)(F)F)c(NCc3nccnc3N(C)S(C)(=O)=O)n2)cc1 [defactinib]
Method in brief: as §1

[7] = compound: CNCc1ccc(-c2[nH]c3cc(F)cc4c3c2CCNC4=O)cc1 [rucaparib]
Method in brief: as §1

[8] = compound: CNc1nc(-c2ccc3c(N)n[nH]c3c2)cc(N2C[C@@H](C(=O)NC3CCCCC3)CC[C@H]2C)n1
Method in brief: as §1

[9] = compound: COC(=O)N[C@@H](C)CNc1nccc(-c2cn(C(C)C)nc2-c2cc(Cl)cc(NS(C)(=O)=O)c2F)n1 [encorafenib]
Method in brief: as §1

[10] = compound: COC(=O)[C@H](CCSC)NC(=O)C1=C(C=C(C=C1)NC[C@H](CS)N)C2=CC=CC=C2
Method in brief: as §1

Row | Target | log2 fold change [1] | log2 fold change [2] | log2 fold change [3] | log2 fold change [4] | log2 fold change [5] | log2 fold change [6] | log2 fold change [7] | log2 fold change [8] | log2 fold change [9] | log2 fold change [10]
1 | PPIP5K1 (UniProt Q6PFW1) | inactive: 0.056 | inactive: -0.009 | inactive: -0.012 | inactive: -0.007 | inactive: 0.037 | inactive: 0.005 | inactive: -0.061 | inactive: -0.007 | inactive: -0.003 | inactive: 0.012
2 | POSTN (UniProt Q15063) | inactive: -0.016 | inactive: 0.147 | inactive: 0.028 | inactive: -0.043 | inactive: 0.052 | inactive: -0.014 | inactive: -0.129 | inactive: -0.107 | inactive: -0.009 | inactive: 0.006
3 | PLP2 (UniProt Q04941) | inactive: 0.076 | inactive: 0.056 | inactive: 0.027 | – | inactive: -0.274 | inactive: 0 | inactive: -0.038 | inactive: -0.058 | inactive: -0.124 | inactive: -0.201
4 | PPM1A isoform 3 (UniProt P35813) | inactive: -0.036 | inactive: 0.047 | inactive: -0.05 | inactive: 0.039 | inactive: 0.008 | inactive: -0.017 | inactive: -0.062 | inactive: 0.04 | inactive: -0.004 | inactive: -0.019
5 | POLR2A (UniProt P24928) | inactive: -0.012 | inactive: 0.034 | active: 0.329 | inactive: -0.012 | inactive: -0.035 | inactive: 0.241 | inactive: 0.126 | inactive: 0.025 | inactive: 0.027 | inactive: -0.07
6 | POR (UniProt P16435) | inactive: 0.016 | inactive: 0.085 | inactive: -0.065 | inactive: 0.006 | inactive: -0.004 | inactive: -0.043 | inactive: -0.006 | inactive: -0.008 | inactive: -0.013 | inactive: -0.027
7 | PMS2 (UniProt P54278) | inactive: 0.31 | inactive: 0.258 | inactive: -0.06 | – | inactive: 0.261 | inactive: -0.109 | inactive: -0.842 | inactive: 0.088 | inactive: 0.201 | inactive: 0.093
8 | PPIA (UniProt P62937) | inactive: 0.006 | inactive: -0.01 | inactive: -0.048 | inactive: -0.019 | inactive: 0.079 | inactive: -0.046 | inactive: 0.022 | inactive: 0.004 | inactive: -0.047 | inactive: 0.023
9 | PPIP5K2 (UniProt H0Y9S9) | inactive: 0.178 | inactive: 0 | inactive: -0.073 | inactive: 0.128 | – | – | inactive: 0.032 | inactive: -0.01 | inactive: -0.12 | –
10 | POLR2L (UniProt P62875) | inactive: -0.042 | inactive: -0.057 | inactive: 0.026 | inactive: 0.118 | inactive: 0.039 | inactive: 0.149 | inactive: 0.113 | inactive: 0.028 | inactive: 0.062 | inactive: -0.017
11 | PNISR (UniProt Q8TF01) | inactive: 0.041 | inactive: 0.077 | inactive: 0.037 | inactive: -0.027 | inactive: -0.088 | inactive: -0.028 | inactive: 0.001 | inactive: -0.048 | inactive: -0.018 | inactive: 0.048
12 | PNKP (UniProt Q96T60) | inactive: -0.043 | inactive: 0.164 | inactive: 0.115 | inactive: -0.077 | – | inactive: -0.055 | inactive: 0.356 | inactive: 0.041 | inactive: 0 | inactive: -0.224
13 | PPIF (UniProt P30405) | inactive: 0.011 | inactive: 0.06 | inactive: -0.07 | inactive: 0.026 | inactive: -0.023 | inactive: 0.001 | inactive: 0.03 | inactive: -0.003 | inactive: -0.024 | inactive: 0.018
14 | POLG (UniProt P54098) | inactive: 0.025 | inactive: 0.05 | inactive: -0.04 | inactive: 0.055 | inactive: 0.075 | inactive: -0.034 | – | inactive: -0.264 | – | inactive: 0.056
15 | PLEKHF2 (UniProt Q9H8W4) | inactive: 0.024 | inactive: -0.112 | inactive: -0.117 | inactive: 0.013 | inactive: -0.011 | inactive: 0.018 | inactive: 0.058 | inactive: 0.003 | inactive: 0.12 | inactive: 0
16 | PODXL2 (UniProt Q9NZ53) | inactive: -0.26 | inactive: -0.333 | inactive: 0.154 | inactive: 0.043 | inactive: 0.033 | inactive: -0.142 | inactive: 0.008 | inactive: 0 | inactive: -0.07 | inactive: -0.103

Taken from above for reference:
Row | Target | log2 fold change [1] | log2 fold change [2] | log2 fold change [3] | log2 fold change [4] | log2 fold change [5] | log2 fold change [6] | log2 fold change [7] | log2 fold change [8] | log2 fold change [9] | log2 fold change [10]
9 | PPIP5K2 (UniProt H0Y9S9) | inactive: 0.178 | inactive: 0 | inactive: -0.073 | inactive: 0.128 | – | – | inactive: 0.032 | inactive: -0.01 | inactive: -0.12 | –
10 | POLR2L (UniProt P62875) | inactive: -0.042 | inactive: -0.057 | inactive: 0.026 | inactive: 0.118 | inactive: 0.039 | inactive: 0.149 | inactive: 0.113 | inactive: 0.028 | inactive: 0.062 | inactive: -0.017
